From PMC10028186
The exact form of at least one protein or probe is not confirmed.

Chains of the proteins cited; added tags and fusions are not shown. Lines headed by an entry give the natural chain unless they say otherwise; changes in a name come on top.
UniProt A0QWS8: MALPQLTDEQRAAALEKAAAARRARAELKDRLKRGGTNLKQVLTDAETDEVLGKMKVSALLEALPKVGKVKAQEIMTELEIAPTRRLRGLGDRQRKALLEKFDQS

What was measured:
[1] = molecular target: Strep-msIHF (mycobacterial integration host factor) (Mycobacterium smegmatis mc2 155) (UniProt A0QWS8); assay: BLI; conditions: BLI: PBS with 50 mM Tris-HCl pH 7.5, 150 mM NaCl, 0.1 mg/ml BSA, 0.05% Tween-20, 30 C; recombinant protein; residues 1-105; protein details: N-terminal Strep tag (pET28N-Strep); probe letters rebuilt from the primers and the genome; part of a longer molecule
[2] = molecular target: Strep-msIHF (mycobacterial integration host factor) (Mycobacterium smegmatis mc2 155) (UniProt A0QWS8); assay: EMSA; conditions: 10 mM Mg acetate, 25 ng poly(dI-dC), EMSA: 50 mM Tris-HCl pH 8, 150 mM NaCl, 0.02% Tween-20, 5% glycerol, 1 mg/ml BSA, 50 fmol DNA in 20 ul, 20 C, recombinant protein, residues 1-105, protein details: N-terminal Strep tag (pET28N-Strep), probe letters rebuilt from the primers and the genome, part of a longer molecule

Row | Sequence | Kd [1] [µM] | binding result [2]
1 | GCAACGAAAAAGGGACCGCACGTGGCGGTCCCTACCGAGCGGGCGACGGGAATCGAACCCGCGTAGCTAGTTTGGAAGACTAGGGCTCTACCATTGAGCTACGCCCGCATGTCAGCACCAGCACTGTACCGGGGAGCTGAAACCAAATCCAATTAAGGGTCTCGTGTCGTGAGCACGTAGTATCTCGCGTGGCCCTTTCGCGGTTTCTCGGCCTGCGGATGGACCACCACGGGGTGTAGCGCAGCTTGGTAGCGCATCCGCTTTGGGAGCGGAAGGCCGCAGGTTCAAA (double strand) [attB fragment] | 0.25 | binds
2 | CTGCTGTGCTGTTCGGCTGCACGTAGGCGGCGAGCATCTCCAGCGCGAGCTGTGTCGGCGAGGCTTTCCACTGGTTGGCGGCCAGGACGTTGACCGGGTGCGCGGCCTCGGCCAGTGCTGCGCCGGCGGGGTCGCGGACGACGACGCGGATGTCGGCGGGGCGCTGCTCGTCGACGGTGAGCATGGAGGCGGGGTCGAGTTTGAGGTCGACGTCGCGCAGTGTGGTCGGCCGGCCGGGCGACAGGTCGGCGTGGACTTCGCGCGGACCGCCGTGGGAGCCTTCGGCAC (double strand) [high-GC fragment] | 0.27 | binds
3 | TTGCCCAGCATCCTCGGTGTGTCGCGGTGTGAGTGGTGTGTGGAGAGCGGTTGATGAACTCCGCCGGCACTGTGGATCGTCGCGCAGGTGTGGAGAGATTCCGTAGTCATCCTGTGGTTTGCGCGCAGGTTCTGCACATCGGTATCCACAGCCGCCGAGCGTGACGGCAGGCACGCGTGTGACAGAAGTTGCTCACAAAAAATTTCGGTCAGGCGTCGTCGAAACCGGGTCGGAACGGGTCCGTAGACGACGGATGCCCGGGGGACTCCCGGGGCATCCGTGTGGGCTGAGTCTCCGAGC (double strand) [oriC fragment] | 0.27 | binds
